Results of single-concentration screens

Measurements from “University of Dundee, Small-Polar-MMV Screening Library” (2021), ChEMBL document CHEMBL3988442.

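Growth of Mycobacterium tuberculosis over 4 days (cholesterol / DPPC medium with tyloxapol); the read-out is not stated. Compounds at 50 µM. Higher reads as more growth inhibition (inferred: compounds with an IC50 in retests scored well above the rest). About 69,000 compounds were tested under these conditions; 0.54% (about 370) showed 50% or more at least once.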

Values are the deposited “Percent Effect”, in %.
The record does not define 0% and 100%; most values in the screen are far below 50% and negative numbers occur (in some assays of this library far below -100).
The compounds are a random part of those screened.
Two or more numbers in one place are separate tests of the same structure; such repeats can differ widely.

Result for N#Cc1c(N)nc2c(c1-c1c[nH]nc1C1CCCCC1)CC(N)CC2 (centres unmarked) was -6.304%.
Result for COCCCC(=O)N1CCC(Nc2cccnn2)CC1 was 2.682%.
Result for CN1CCN(CCOc2ccc(NC(=O)c3cnc[nH]3)cc2)CC1 was -20.55%.
Result for Cc1ccc2c(cnn2CCC(=O)NCc2csc(C)n2)c1 was 2.146%.
Result for CSCCCN1C[C@H](NC(=O)c2cnn(C)c2)[C@@H](C2CC2)C1 was -4.064%.
Result for CC(C)OCc1ncn2c1CN(CC1CC1)CCC2.O=C(O)C(F)(F)F was -25.71%.
Result for CCCC(CNc1cc(C(C)C)nc2ccnn12)N(C)C (centres unmarked) was 23.01%.
Result for COc1ccccc1N1CCCC(Nc2ncccn2)C1=O (centres unmarked) was 3.3%.
Result for O=C(C1CCCC1)N1CC2(CCN(C3COC3)C2)OCc2ccccc21 (centres unmarked) was -15.17%.
Result for CN(C)C(=O)N1CCCC2(CCN(Cc3ccc(Cl)c(F)c3)C2)C1 (centres unmarked) was -25.86%.
Result for Cn1nc(Cn2ccnc2)c2c1CN(C(=O)c1ccoc1)C2.O=C(O)C(F)(F)F was -9.658% & -6.354%.
Result for C[C@@H]1CN(C(=O)c2cccn2C)C[C@]12CCN(c1ccsc1)C2=O was 32.5% & 10.07%.
Result for O=c1[nH]c2c(c(=O)n1C1CCCCC1)CCC2Nc1ccccc1 (centres unmarked) was -17.43%.
Result for CC1CN(CC(=O)NCc2ccccc2)CCN1Cc1nccn1C (centres unmarked) was 12.23%.
Result for Cn1cc(C2(C)CN(Cc3ccc(Cl)c(F)c3)CCO2)cn1 (centres unmarked) was -1.561%.
Result for CC(CCCC(C)(C)O)Nc1ccc(-c2nccn2C)nn1 (centres unmarked) was -16.41%.
Result for Cc1ccc(S(=O)(=O)N2CCCC3(CCCN3S(C)(=O)=O)C2)cc1F (centres unmarked) was 5.02%.
Result for Cc1noc(C)c1CN(C)C(=O)NC(C)Cc1ccco1 (centres unmarked) was -3.941%.
Result for CCSc1ccccc1C(=O)N1CC2(COC(C)(C)OC2)C1 was -1.092%.
Result for CC1Oc2c(cccc2C(=O)N2CCN(CC(C)(C)O)CC2)NC1=O (centres unmarked) was 28.87%.
Result for CN(CCCc1cnn(C)c1)C(=O)Nc1cccc(C#N)c1 was -20.37%.
Result for Cc1ccc(CN2CCC3(CC2)C(=O)N(C)c2ccccc23)s1.O=C(O)C(F)(F)F was 24.95% & 29.07%.
Result for c1csc(-c2noc(CN3CCCC3Cn3cccn3)n2)c1 (centres unmarked) was -10.76%.
Result for Cc1cc(=O)n2nc(Oc3cccc(I)c3)sc2n1 was 6.663%.
Result for NC(=O)c1cnc(NCC(=O)NCc2ccco2)c(Cl)c1 was -9.914%.
Result for Cc1nn(C)c2ncnc(N3CCCC(OCc4cccnc4)C3)c12 (centres unmarked) was 7.353%.
Result for CCn1c(C2CCNCC2)nn(Cc2ccc(C(=O)NC)o2)c1=O was -15.98%.
Result for O=C(O)C(F)(F)F.O=C(O)C(F)(F)F.[H][C@@]12CN(Cc3ccncc3)C[C@H](C(=O)N3CCCCO3)[C@]1([H])CCO2 was -33.63%.
Result for CN(CC1=CCCN(CCc2ccccn2)C1)C(=O)c1ccco1 was -29.01%.
Result for CC(=O)N1CCC(C(=O)N2CCOC(CC3CCCCC3)C2)CC1 (centres unmarked) was -20.99%.
Result for O=C(c1cccn1Cc1cccs1)N1CCN2CCCCC2C1 (centres unmarked) was -8.74%.
Result for Cc1c(S(=O)(=O)N2CCOCC2)cc2c(C)cc(=O)n3c2c1CCC3 was -33.36%.
Result for CC(C)C(=O)NC1COC2(CCN(C(=O)c3ccc[nH]3)CC2)C1 (centres unmarked) was -27.49%.
Result for COC1(CNC(=O)CCCc2ccccc2)CCSC1 (centres unmarked) was -22.03%.

Some entries from above, unchanged:

{"smiles": "Cc1ccc(CN2CCC3(CC2)C(=O)N(C)c2ccccc23)s1.O=C(O)C(F)(F)F", "percent effect": "24.95 & 29.07"}
{"smiles": "O=C(C1CCCC1)N1CC2(CCN(C3COC3)C2)OCc2ccccc21", "stereo": "centres unmarked", "percent effect": -15.17}
{"smiles": "CC1Oc2c(cccc2C(=O)N2CCN(CC(C)(C)O)CC2)NC1=O", "stereo": "centres unmarked", "percent effect": 28.87}